The list does not hold the whole screen: it is rich in T/C values a quarter to a half above the control, in often repeated tests (any T/C) and in doses without a T/C. Further doses and runs are listed elsewhere. T/C is the treated group as % of the vehicle group. Some doses have a count of surviving animals in place of a T/C: the source holds a T/C of zero for them, seemingly a mark for toxic or unscored doses. Some doses without a T/C left all or most animals alive at the check, yet need not have been tolerated: the source hardly ever lists a survival T/C far under the control, and the zero likely stands for such cases as well. Counts of survivors are from the toxicity check (mostly the fifth day) where no day follows; animals may have died later. Schedules are NCI's codes, read here as Q, the interval in days (D) or hours (H), X, the number of doses. Some entries hold several experiments; the values are given in rising order. Where survival is the endpoint, the PubChem record calls one and a half times the control and up active, and a quarter to a half above the control has no call in these data; cut-offs in other NCI protocols can differ. Some T/C values are followed by the survivors on the day toxicity was checked, most often the fifth; without a count, all were alive then.
System: BDF1 mice, s.c. Lewis lung carcinoma, T/C %
Assay: NCI In Vivo Anticancer Drug Screen. Data for tumor model Lewis Lung Carcinoma (subcutaneous) in B6D2F1 (BDF1) mice
In short: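 Antitumor effect in vivo is scored from survival or tumor burden, reported as treated relative to vehicle controls.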

CC1(C)CCC(NC(=O)N(CCF)N=O)CC1
T/C (T/C endpoint: median survival time, dose: 20.0 mg/kg/injection, schedule: Q01DX009 (ip), vehicle: saline with Tween-80, higher T/C = longer survival): 137 % of control
T/C (T/C endpoint: median survival time, dose: 37.0 mg/kg/injection, schedule: Q01DX009 (ip), vehicle: saline with Tween-80, higher T/C = longer survival): 130 % of control [8 of 9 alive]
survivor count (T/C endpoint: median survival time, dose: 75.0 mg/kg/injection, schedule: Q01DX009 (ip), vehicle: saline with Tween-80, higher T/C = longer survival): 0 of 10

O=[N+]([O-])O.[Ga]
T/C (T/C endpoint: median survival time, dose: 4.0 mg/kg/injection, schedule: Q01DX009 (ip), vehicle: saline, higher T/C = longer survival): 127 % of control
survivor count (T/C endpoint: median survival time, dose: 64.0 mg/kg/injection, schedule: Q01DX009 (ip), vehicle: saline, higher T/C = longer survival): 10 of 10

CCn1c2ccccc2c2cc(NC(=O)N(CCCl)N=O)ccc21
survivor count (T/C endpoint: median survival time, dose: 200.0 mg/kg/injection, schedule: Q01DX001 (ip), vehicle: saline with Tween-80, higher T/C = longer survival): 10 of 10
survivor count (T/C endpoint: median survival time, dose: 400.0 mg/kg/injection, schedule: Q01DX001 (ip), vehicle: saline with Tween-80, higher T/C = longer survival): 10 of 10

C[C@]12CCC(=O)C=C1CC[C@@H]1[C@@H]2C(=O)C[C@]2(C)C3=CC(=O)O[C@H]3C[C@@H]12
survivor count (T/C endpoint: median survival time, dose: 50.0 mg/kg/injection, schedule: Q01DX009 (ip), vehicle: saline with Tween-80, higher T/C = longer survival): 8 of 10

CNC(=O)N(C)c1cc(N(C)C)nc(OC)n1
T/C (T/C endpoint: median survival time, dose: 20.0 mg/kg/injection, schedule: Q01DX009 (ip), vehicle: Klucel (hydroxypropylcellulose) (HPC), higher T/C = longer survival): 146 % of control

COc1cc(OC)c(OC)cc1/C=C/c1cc[n+](C)c2ccccc12
survivor count (T/C endpoint: median survival time, dose: 25.0 mg/kg/injection, schedule: Q01DX009 (ip), vehicle: saline, higher T/C = longer survival): 9 of 10
survivor count (T/C endpoint: median survival time, dose: 50.0 mg/kg/injection, schedule: Q01DX009 (ip), vehicle: saline, higher T/C = longer survival): 7 of 10 and 9 of 10
survivor count (T/C endpoint: median survival time, dose: 100.0 mg/kg/injection, schedule: Q01DX009 (ip), vehicle: saline, higher T/C = longer survival): 0 of 10
survivor count (T/C endpoint: median survival time, dose: 200.0 mg/kg/injection, schedule: Q01DX009 (ip), vehicle: saline, higher T/C = longer survival): 0 of 10

CC(=O)[C@@]1(O)CC[C@H]2[C@@H]3C[C@H](C)C4=CC(=O)C=C[C@]4(C)[C@@]3(F)[C@@H](O)C[C@@]21C
survivor count (T/C endpoint: mean tumor weight, dose: 12.5 mg/kg/injection, schedule: Q01DX011 (sc), vehicle: steroid suspending solution, higher T/C = larger tumour): 3 of 6
survivor count (T/C endpoint: mean tumor weight, dose: 100.0 mg/kg/injection, schedule: Q01DX011 (sc), vehicle: steroid suspending solution, higher T/C = larger tumour): 2 of 6

CC1CCCCN1 (stereo not given)
survivor count (T/C endpoint: mean tumor weight, dose: 100.0 mg/kg/injection, schedule: Q01DX011 (ip), vehicle: saline, higher T/C = larger tumour): 0 of 6

O=NN(CCCl)C(=O)Nc1ccc2c3c(cccc13)-c1ccccc1-2
survivor count (T/C endpoint: median survival time, dose: 400.0 mg/kg/injection, schedule: Q01DX009 (ip), vehicle: Klucel (hydroxypropylcellulose) (HPC), higher T/C = longer survival): 9 of 10

O=C(O)c1cc(=O)cc(C(=O)O)o1
survivor count (T/C endpoint: mean tumor weight, dose: 200.0 mg/kg/injection, schedule: Q01DX011 (ip), vehicle: saline, higher T/C = larger tumour): 2 of 6

C1CC[N-]CC1.C1CC[N-]CC1.C1CC[N-]CC1.[Cl][Rh]([Cl])[Cl]
survivor count (T/C endpoint: median survival time, dose: 2.0 mg/kg/injection, schedule: Q01DX009 (ip), vehicle: saline, higher T/C = longer survival): 10 of 10
survivor count (T/C endpoint: median survival time, dose: 128.0 mg/kg/injection, schedule: Q01DX009 (ip), vehicle: saline, higher T/C = longer survival): 3 of 10
